The RNAGym collection of RNA variant scans (doi:10.1126/science.aae0568)
Variants at the floor of the assay are shown more often than the library holds them.

B1: tRNA (parent)
chain: GUUCCGUUGGCGUAAUGGUAACGCGUCUCCCUCCUAAGGAGAAGACUGCGGGUUCGAGUCCCGUACGGAACG

Variants of: B1
Assay: yeast fitness relative to wild type (ratio to wild type); higher = fitter; tRNA-Arg(CCU), competitive growth, 37 C, YPD
Procedure, shortened: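 For this measurement, the tRNA-Arg(CCU) gene was varied by chemical synthesis at a 3% per-site mutation rate across 69 sites, and each variant was placed at the native genomic locus in Saccharomyces cerevisiae. The pooled strains went through a 24-hour competition in YPD at 37°C in six parallel replicates, with amplicons from start and end populations read by 100-nucleotide paired-end sequencing. Darwinian fitness relative to wild type followed from the change in each genotype's frequency. Genotypes needed ≥ 100 starting reads, and estimates < 0.5 were set to 0.5.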
In the case of GUUCCGUUGGCGUAAUGGUGACGCGUCUCCCGCCUAAGGAGACGUCUGCGGGUUCGAGUCUCGUACGGAGCG, the yeast fitness is reported as at most 0.5.
For GUUCCGUUGGCGUAAUGGUAACGCGUCUCCUUCCUAAGGAGAAGACUGCGGGUUCGAGCCCCGUACGGAACG, the yeast fitness was 1.02.
Work on GUUCCGUUGGCGUAAUGGUAACGCGUCUCCCUCAUAAGGAGAAGACUGCGGGUUCGAGUACCGUACGGAACG yielded a yeast fitness of at most 0.5.
GUUCCGUUGGCGUAAUGGUAACGCCUCUGCCUCCUAAGGAGAGGACUGCGGGUUCGAGUCCCGUACGGAACG showed a yeast fitness of at most 0.5.
For GUUCCGUUGGCGUAAUCGUAACGCGUCUCUCUCCUGAGGAGAAGACUGCGGGUUCGAGUCCCGUACGGAACG, the yeast fitness was at most 0.5.
In the case of GUUCGGUUGGCGUUAUGGUAAGGCGUGUCCGUCCUAAGGAGAAGACUGCGGGUUCGAGUCGCGUACGGUACG, the yeast fitness is reported as at most 0.5.
In the case of GUUCCGUUGGCGUAAUGGUAACGCGUUUCCCUCCUAAGGAGAGGACUGCGGGUUCGAGUCCCGUACGCAACG, the yeast fitness is reported as at most 0.5.
GUUCCGUUGGCGUAAUGGUAACGCGUCUCCCUCCUAUGGAGAAAACUGCGGGUUCGAGUCCCGUAAGGAACG showed a yeast fitness of at most 0.5.
Work on GUUCCAUUGGCGUAAUGCUAGCGCGUCUCCCUCCUAAGGAGAAGACUGCGGGUUCGAGUCCCGUACGGAACG yielded a yeast fitness of at most 0.5.
In the case of GUUCCGUUGGCGUAAAGGUAACGCGUGUCCCUCCUAAGGAGAAGACUGGGGGUUCGAGUCCCGAACGGAACG, the yeast fitness is reported as at most 0.5.
For GUUCCGUUGGCGUAAUGGUAACGCGUCUCCCUCCUAAGGAGAAGAGUGCGCGAUCGAGUCCCGUACGGAACG, the yeast fitness was at most 0.5.
In the case of GUUCCGUUGGCGUAAUGGUAACGCGUCUCCCUCCUAAGGAGAUGACCGCGGGUUAGAGUCCCGUACGGAACG, the yeast fitness is reported as at most 0.5.
Work on GUUCCGAUGGCGUAAUGGUGACGCGUCUCCCUCCUAAGGUGAAGACUGCGGGUUCGAGUCCCGUACGGAACG yielded a yeast fitness of at most 0.5.
In the case of GUUCCGUUGGCGUAAUGGCAACGCGUCUCCCUCCUGAGGAGAAAACUGCGGGUUCGAGUCCCGUACGGAUCG, the yeast fitness is reported as at most 0.5.
In the case of GUUCCGUUGGCGUAAUGGUAACGCGUCUCCCUCCUGAGGCGAAGACUGCAGGUUCGAGUCCCGUACGGAACG, the yeast fitness is reported as at most 0.5.
With GUACCGUUGGCGUAAUGGUAACGCGUAUCCCUCCUGAGGAGAAGACUGCGGGUUCGAGUCCCGUACGGAUCG the yeast fitness was at most 0.5.
Work on GUUACGUUGGCGUAAUGGUAACGCGUCUCCCUCGUAAGGAGAAGACUGCGGGUUCGAGUCCCGUACGGAGCG yielded a yeast fitness of at most 0.5.
GUUCCGUUGCCGUAAUGGUAACGCGUUUCCCUCCUAAGGAGAAGACUGCGGGUUCAAGUCCCGUACGGAACG gave a yeast fitness of at most 0.5.
Work on GUUCCGUUGGCGUAAUGGUAACGCGACUCCCUCCUAAGGAGAAGACUGCGGGUUCAAGUCCCGUACGGAACG yielded a yeast fitness of 1.02.
Variant GUUCCGUUGGCGUAAUAGUAAUGCGUCUCCCUCCUAAGGAGAAGACUGCGGGUUCGAGUCCCGUACGGAACG has a yeast fitness of 0.737.
GUUGCGUUGGCGUCAUGGUCACGCGUCUCCCUCCUAAGGGGAACACUGCGGGCUAGAGUCCCGUACGGAACG showed a yeast fitness of at most 0.5.
For GUUCAGUUGGCGUAAUGGUAACGCGUCUCUCUCCAAAGGAGGAGACUGCGGGUUCGAGUCUCGUACGGAACG, the yeast fitness was at most 0.5.
For GUUCCGUUCGCGUAAUGGUAACGCGUCUCCCUCCAAAGGAGAUGACUGCGGGUUCGAGUCCCGUACGGAACG, the yeast fitness was at most 0.5.
For GUUGCGUUGGCGUAAUGCUAACGCGUCUCCCUCCUAAGGAGACGACUGCGGGUUCGCAUCCCGUACGGAACG, the yeast fitness was at most 0.5.
GUUCCGUAGGCGUAAUGGUAAAGCGUCUCCCUACUUAGGAGAAGACUGCGGGUACGAGUCCCGUACGGAACG gave a yeast fitness of at most 0.5.
With GUUCCGUUGGCGUAAUGGUAACACGUCUCUCUACUAAGGACUAGGCUGCGGGUUCGAGUCCCGUACGGAGCG the yeast fitness was at most 0.5.
GUUCCGUUGGCGUAAUGGAAACGCGUCUCCCUCCUGAGGGGAAGACUGCGGGUUGGAGUCCCGUCCGGAACG gave a yeast fitness of at most 0.5.
In the case of GUUCCGUUGGUGUACUGGUAGCGGGUCACCCUCCUAAGGAGAAGACUGCGGGUUCGAGUCUCGUACGGAACG, the yeast fitness is reported as at most 0.5.
With GUUCUGUUGGCGUAAUGGUAACGCGUCUCCCUCCUAAGGAGAAGACUGCGGGUUUGAGUCCGGUAAGGAACG the yeast fitness was at most 0.5.
GUUCCGUUGGCGUAAGGCUAUCGCGUCUCCCUCCUAAGGAGAAGUCUGUGGGUUCGAGUCCCGAACGGAACG showed a yeast fitness of at most 0.5.
GUUCCGUUGGCGUAAUGGUAACGCGUCUCCCUACUAAGGAGAAGACUGCGGGUGCGAGUCCCAUACGGAACG gave a yeast fitness of at most 0.5.
With GUUCCGUUGGCGUAAUGGUAACGCCUCUCCCUCCUAAGGAGAAGAAUGCGGGUUCCAGUCCCGUACGGAACG the yeast fitness was at most 0.5.
For GUUCCGUUGGCGAAAUGGUAACGCGUUUCCCUCCUAAGGAGAAGACUGCGGGUUCGAGUCCCGUACGGAACG, the yeast fitness was 0.984.
Variant GUUCCGUUGGCGUCAUGGUAACGCGUCUCCCUCCUGAGGAAAAGACUCCGGGUUCGAGCCCCGUACGGAACG has a yeast fitness of 0.7.
Variant GUUCCGUUGGCGUAAUGGUAAUGCGUCUCCCUCCUAAGGAGAAGACUGCGGGUUCGAGUCCCGUGCGGAGCG has a yeast fitness of at most 0.5.
GUUCCGUUCGCGUAAUGGUAACACGUCUCCCUCCUAAGGCGAAGACUACGGGGUCGAGUCCCGUACGGAACG gave a yeast fitness of at most 0.5.
With GUUCCGUUGGCGUAAUGGUAACGCGUCUCCCUCCUAAGGCGAAGACUGCGGGUUUGAGUCCCGUCCGGAACG the yeast fitness was at most 0.5.
